Measured values reported in PubChem BioAssay AID2685 (National Center for Advancing Translational Sciences (NCATS), 2010).
Some of the results follow. The main result of the screen is listed elsewhere. These columns were measured beside it and carry no call. The list favours compounds with an active or inconclusive main result. The note in brackets gives the kind of curve behind each potency; many fits are weak.

Test: qHTS Assay for Lipid Storage Modulators in Drosophila S3 Cells;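 as to cell number change: cells counted by Cell Tracker Red CMTPX staining in the red channel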
Conditions: BODIPY lipid droplet fluorescence, 18-24 h; for cell number change: measured here: cell count max response, cells fed with added oleic acid
Summary of the method: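 Drosophila S3 cells loaded with oleic acid (400 uM, as added) and compounds at several concentrations; lipid droplets imaged by 488-nm laser-scanning cytometry, 500–530 nm intensity and object ratio to cell channel. Percent activity normalized to 20 uM Triacsin C.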

[1] = measured here: lipid fluorescence (Fed channel) AC50, cells fed with added oleic acid
[2] = measured here: cell number channel AC50, cells fed with added oleic acid

SMILES	cell number change	AC50 [1]	AC50 [2]
CN(C(=O)CSc1nc(-c2ccccc2)cn1N)C(c1ccccc1)c1ccccc1	-11.2%	0.651 µM [rising, full curve]	–
O=C(Nc1nccs1)c1cccc(S(=O)(=O)N2CCCCC2)c1	3.51%	4.11 µM [rising, single point]	–
CCCC1(c2ccccc2)NC(=O)N(CC(=O)Nc2ccccc2C(F)(F)F)C1=O (centres undefined)	-22.1%	–	–
Cc1ccc(S(=O)(=O)NCCc2nc3ccccc3[nH]2)cc1	–	6.51 µM [rising, partial curve, poor fit]	–
O=C(CSc1ncc(-c2ccccc2)nn1)NCc1ccco1	179%	18.4 µM [rising, partial curve]	18.4 µM [rising, partial curve]
Cc1noc(C(=O)N(C)c2ccccc2)c1Cl	-1.39%	10.3 µM [falling, partial curve]	–
COc1ccc(N2CCN(CC(=O)N3N=CCC3c3ccccc3)CC2)cc1 (centres undefined)	34.1%	–	–
COc1ccc(N(C)S(=O)(=O)c2cccc(C(=O)N3CCN(S(=O)(=O)c4ccc(C)cc4)CC3)c2)cc1	-14.8%	–	–
Cc1ccc(NC(=O)CCSc2nnc3ccccn23)cc1	-14.6%	29.1 µM [falling, single point]	–
COc1ccccc1N(C)S(=O)(=O)c1ccc(C(=O)NC2CCCCC2)cc1	-11.5%	0.0206 µM [falling, full curve, poor fit]	–
COc1ccc(NC(=O)C(=O)NCC2CCCN2S(=O)(=O)c2cc(C)ccc2C)cc1 (centres undefined)	–	–	6.51 µM [rising, single point]
Cc1ccc(S(=O)(=O)NC(C)(C)CN2CCc3ccccc3C2)cc1	21.8%	0.00411 µM [rising, full curve, poor fit]	0.00517 µM [rising, full curve, poor fit]
Cc1ccc(-n2ncc3c(NCc4cccnc4)ncnc32)c(C)c1	-35.8%	29.1 µM [falling, single point]	16.4 µM [falling, partial curve]
CNC(=O)C(=O)NCCN1CCN(S(=O)(=O)c2ccc3ccccc3c2)CC1	–	29.1 µM [rising, single point]	–
NC(=O)C1CCCN(S(=O)(=O)c2ccccc2)C1 (centres undefined)	-7.87%	3.66 µM [falling, full curve]	–
O=C(CC1CCCCC1)NCCCN1CCOCC1	4.32%	0.517 µM [rising, full curve]	–
CC(C(=O)Nc1cccc([N+](=O)[O-])c1)N1C(=O)NC2(CCCC2)C1=O (centres undefined)	30.3%	0.112 µM [rising, full curve, poor fit]	29.1 µM [rising, single point]
CN(C)CCNC(=O)c1ccccc1-c1cc2ccccc2c(=O)o1	18.9%	–	–
CCc1cccc(C)c1NC(=O)CSc1nc2ccncc2[nH]1	-6.49%	8.2 µM [falling, partial curve, poor fit]	–
O=C(c1ccc(CSc2nc3ccncc3[nH]2)cc1)N1CCN(c2cccc(Cl)c2)CC1	-64.8%	14.6 µM [falling, partial curve]	13 µM [falling, partial curve]

SMILES	cell number change	AC50 [1]	AC50 [2]
CC(C)C(=O)Nc1nc2cc3c(cc2s1)OCCO3	–	3.66 µM [rising, partial curve]	–
O=C(NC(=S)NNC(=O)c1cc2ccccc2cc1O)c1ccco1	5.57%	–	0.164 µM [falling, full curve, poor fit]
O=C1Nc2cc(C(=O)N3CCOCC3)ccc2S/C1=C\c1ccccc1	-6.13%	29.1 µM [falling, single point]	–
COc1cc(OC)cc(C(=O)NNC(=O)C2CSC3(C)CCC(=O)N23)c1 (centres undefined)	-0.423%	3.26 µM [falling, partial curve, poor fit]	–
O=C1c2ccccc2C(=O)N1Cc1nc2ccccc2c(=O)n1CCCN1CCOCC1	–	6.51 µM [rising, single point]	–
COc1cc(-c2noc(C)c2/C=C/c2ccc(N)cc2)cc(OC)c1OC	-2.27%	–	–
COc1ccc(N2C(=NC(=O)C3CCCCC3)SC3CS(=O)(=O)CC32)c(OC)c1 (centres undefined)	-18.9%	–	–
c1ccc(-c2noc(-c3ccno3)n2)nc1	-13.6%	1.64 µM [falling, partial curve, poor fit]	–
Cc1c(Br)c(O)c(Br)c2sc(=O)oc12	-44.2%	23.1 µM [falling, partial curve, poor fit]	29.1 µM [falling, single point]
CCn1c(SCC(=O)Nc2ccc(C)cc2)nnc1-c1cnccn1	32.5%	29.1 µM [rising, single point]	1.46 µM [rising, full curve, poor fit]
O=C(O)CN1C(=O)C2C3C=CC(C3)C2C1=O (centres undefined)	-165%	23.1 µM [falling, partial curve]	25.9 µM [falling, partial curve]
O=C(O)c1cccc(NCc2cccnc2)c1	-80.2%	16.4 µM [falling, partial curve]	16.4 µM [falling, partial curve]
COc1ccc(NC(=O)c2nn(C34CC5CC(CC(C5)C3)C4)cc2[N+](=O)[O-])cc1	-0.879%	0.058 µM [falling, partial curve]	–
N#Cc1ccccc1S(=O)(=O)N1CCN(C(=O)CN2C(=O)NC3(CCCC3)C2=O)CC1	30.6%	–	2.91 µM [rising, single point]
O=c1[nH]c2cc(Cl)ccc2n(CCNc2ncc(C(F)(F)F)cc2Cl)c1=O	32.1%	18.4 µM [rising, single point]	32.6 µM [rising, single point]
CCCn1c2ccccc2c2cnn(CC(=O)NCCN(CC)CC)c(=O)c21	-22.9%	29.1 µM [falling, single point]	0.164 µM [falling, full curve, poor fit]
COc1cccc(NC(=O)CSc2nc3ccccc3c(=O)n2C)c1	-47.8%	–	32.6 µM [falling, single point]
CCOC(=O)N1CCC(NC(=O)CS(=O)Cc2nc(-c3ccc(C)cc3)oc2C)CC1 (centres undefined)	-15.1%	5.8 µM [falling, single point]	–
CCOC(=O)N1CCC(NC(=O)Cc2cn(C)c3ccccc23)CC1	-60.4%	0.366 µM [falling, full curve, poor fit]	0.0206 µM [falling, full curve]
CNS(=O)(=O)c1cccc(C(=O)OCC(=O)c2cc(C)n(-c3ccc4c(c3)OCO4)c2C)c1	3.32%	6.51 µM [falling, single point]	–

Three of the compounds above, field by field:
O=C1Nc2cc(C(=O)N3CCOCC3)ccc2S/C1=C\c1ccccc1
  cell number change: -6.13%; AC50 [1]: 29.1 µM [falling, single point]
c1ccc(-c2noc(-c3ccno3)n2)nc1
  cell number change: -13.6%; AC50 [1]: 1.64 µM [falling, partial curve, poor fit]
CCn1c(SCC(=O)Nc2ccc(C)cc2)nnc1-c1cnccn1
  cell number change: 32.5%; AC50 [1]: 29.1 µM [rising, single point]; AC50 [2]: 1.46 µM [rising, full curve, poor fit]

(continued)

SMILES	cell number change	AC50 [1]	AC50 [2]
O=C(O)CCn1c(C2CCCCC2)nc2ccccc21	-15%	1.84 µM [falling, full curve, poor fit]	–
CCOc1ccc(C(=O)Nc2ccc(C(=O)N3CCOCC3)cc2)c(OCC)c1	–	0.0731 µM [falling, full curve, poor fit]	–
O=C(COc1ccc(F)cc1Cl)Nc1ccc(N2CCOCC2)cc1N1CCOCC1	–	–	6.51 µM [falling, single point]
CCCP(=O)(CC(=O)N(CC)CC)c1ccccc1 (centres undefined)	-1.65%	0.0326 µM [falling, full curve, poor fit]	–
COCCn1c(-c2ccc(Br)cc2)csc1=Nc1cccnc1	14.2%	–	–
CCOC(=O)C1Cc2c([nH]c3ccccc23)CN1 (centres undefined)	16.1%	5.8 µM [falling, single point]	–
O=C(Oc1ccc(N(Cc2cccs2)C2=NS(=O)(=O)c3ccccc32)cc1)c1ccccc1F	6.96%	6.51 µM [rising, single point]	–
O=C(CC1C(=O)NCCN1Cc1c(F)cccc1Cl)NCCCn1cccn1 (centres undefined)	6.06%	–	–
COc1cc(OC)cc(-c2sc3ccc(OC)cc3c2C#CCCO)c1	8.54%	0.00461 µM [rising, full curve, poor fit]	–
COc1ccc(CNC(=S)Nc2cc(OC)ccc2OC)cc1	21.2%	16.4 µM [rising, single point]	–
Cc1ccc(-c2cnc(-c3ccccc3C(=O)O)o2)cc1	27.9%	–	–
CC(=O)NC(Cc1cc(C)ccc1C)C(=O)N1CCN(C(=O)c2ccc([N+](=O)[O-])cc2)CC1 (centres undefined)	–	5.8 µM [rising, single point]	–
c1cc(CSc2nnc(-c3ccc4c(c3)OCO4)o2)ccn1	8.61%	–	–
CN(C)C/C(Cl)=C(\Cl)c1ccccc1	1.84%	–	–
CCn1c(SCC(=O)Nc2cccc(O)c2)nc2c1c(=O)n(C)c(=O)n2C	59.6%	0.82 µM [falling, full curve]	18.4 µM [rising, single point]
Cc1ccc(NC(=O)Cc2cc(C(=O)O)c3ccccc3n2)c(C)c1	-52.5%	29.1 µM [falling, single point]	29.1 µM [falling, single point]
Nc1cc2ccccc2oc1=O	-6.45%	6.51 µM [falling, single point]	0.517 µM [falling, single point]
COc1ccc(S(=O)(=O)/N=C2\C=C(NS(=O)(=O)c3ccccc3)C(=O)c3ccccc32)cc1	-7.14%	–	–
COc1ccc(NS(=O)(=O)c2cc(NC(=O)c3cnc(C)cn3)ccc2N2CCCCC2)cc1	-27.2%	20.6 µM [falling, single point]	4.11 µM [rising, single point]
